Data: PMC9997661
No constants are given. Whether binding was seen depends on the method and setting. In cells and extracts the contact can be indirect. Some binding calls cover weakened binding; strength is not graded here. For part of these data: Sequences can lack the tags named with a protein.

Sequences of proteins named here, by UniProt entry; tags and fusion partners are left off.
UniProt P61204: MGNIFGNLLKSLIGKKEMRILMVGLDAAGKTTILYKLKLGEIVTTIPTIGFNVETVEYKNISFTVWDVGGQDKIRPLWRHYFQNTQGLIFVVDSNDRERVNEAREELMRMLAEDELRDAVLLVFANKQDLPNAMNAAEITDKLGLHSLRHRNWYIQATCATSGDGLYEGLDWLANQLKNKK
UniProt P62330: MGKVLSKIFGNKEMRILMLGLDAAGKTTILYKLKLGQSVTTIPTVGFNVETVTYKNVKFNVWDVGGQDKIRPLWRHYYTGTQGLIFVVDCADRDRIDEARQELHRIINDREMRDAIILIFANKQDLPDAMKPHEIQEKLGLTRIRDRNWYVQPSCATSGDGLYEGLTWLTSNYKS
UniProt P84077: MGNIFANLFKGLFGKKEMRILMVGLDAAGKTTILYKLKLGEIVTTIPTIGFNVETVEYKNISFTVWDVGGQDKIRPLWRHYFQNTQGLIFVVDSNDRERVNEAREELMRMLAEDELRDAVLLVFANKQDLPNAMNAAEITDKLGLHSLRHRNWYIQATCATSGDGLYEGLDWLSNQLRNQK

T1: GST-GGA3-GAT recombinant fusion protein (UniProt Q9NZ52)
T1 sequence: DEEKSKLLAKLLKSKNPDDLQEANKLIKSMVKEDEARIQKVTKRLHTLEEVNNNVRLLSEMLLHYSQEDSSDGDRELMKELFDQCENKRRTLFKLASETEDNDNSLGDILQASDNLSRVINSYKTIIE

B1: RAB11FIP4 (endogenous) (protein, UniProt Q86YS3 1-637)
chain: MAGGAGWSGAPAALLRSVRRLREVFEVCGRDPDGFLRVERVAALGLRFGQGEEVEKLVKYLDPNDLGRINFKDFCRGVFAMKGCEELLKDVLSVESAGTLPCAPEIPDCVEQGSEVTGPTFADGELIPREPGFFPEDEEEAMTLAPPEGPQELYTDSPMESTQSLEGSVGSPAEKDGGLGGLFLPEDKSLVHTPSMTTSDLSTHSTTSLISNEEQFEDYGEGDDVDCAPSSPCPDDETRTNVYSDLGSSVSSSAGQTPRKMRHVYNSELLDVYCSQCCKKINLLNDLEARLKNLKANSPNRKISSTAFGRQLMHSSNFSSSNGSTEDLFRDSIDSCDNDITEKVSFLEKKVTELENDSLTNGDLKSKLKQENTQLVHRVHELEEMVKDQETTAEQALEEEARRHREAYGKLEREKATEVELLNARVQQLEEENTELRTTVTRLKSQTEKLDEERQRMSDRLEDTSLRLKDEMDLYKRMMDKLRQNRLEFQKEREATQELIEDLRKELEHLQMYKLDCERPGRGRSASSGLGEFNARAREVELEHEVKRLKQENYKLRDQNDDLNGQILSLSLYEAKNLFAAQTKAQSLAAEIDTASRDELMEALKEQEEINFRLRQYMDKIILAILDHNPSILEIKH

What was measured:
[1] = target: T1, GST-GGA3-GAT recombinant fusion protein; assay: pull-down; ARF-GTP pulldown: 80 ug GST-GGA3-GAT immobilised on glutathione agarose in spin columns, 1 mg PC3 lysate, 2 h at 4°C, eluted with 10 mM glutathione; immunoblot for mNG or ARF3/ARF6; cells with Scr or PSD shRNA for the endogenous ARFs; only the target purified
[2] = target: ARF3 GTPase (endogenous) (human (endogenous in PC3)) (UniProt P61204); assay: co-IP; 1 mg PC3 cell lysate (RIPA lysis buffer) with 2 ug anti-ARF3 antibody (610784; BD) overnight at 4°C, anti-mouse agarose 1 h; mouse agarose as IgG control; washed three times in RIPA; immunoblot
[3] = target: mNeonGreen (mNG)-tagged ARF3 (UniProt P61204); assay: co-IP; 1 mg lysate of PC3 cells expressing mNG or ARF3-mNG, mNG-Trap Agarose beads (ChromoTek); immunoblot

Row | Molecule | binding [1] | binding [2] | binding [3]
1 | ARF3 GTPase (endogenous) (from UniProt P61204 1-181) | binds |  | 
2 | ARF6 GTPase (endogenous) (from UniProt P62330 1-175) | binds |  | 
3 | mNeonGreen (mNG)-tagged ARF1 (from UniProt P84077 1-181) | binds |  | 
4 | mNeonGreen (mNG)-tagged ARF3 (from UniProt P61204 1-181) | binds |  | 
5 | B1 |  | binds | binds
